# From PubChem BioAssay AID1347075 (National Center for Advancing Translational Sciences (NCATS), 2019)
# Out of some 400,000 compounds screened, about 5,500 (1.4%) were called active. The shares of active, inactive and inconclusive entries below differ from those in the screen. The call rests on the fitted dose curve; in most records, active means well fitted cell-killing curve with a large enough effect; inconclusive means small, poorly fitted or top-dose-only effect, or effect the other way; inactive means flat fitted curve, though single readings scatter. Where the call is inconclusive, the potency comes from a doubtful curve fit.
# Experiment: qHTS assay for MDR1-selective chemotherapeutics: Primary screen using the parental adenocarcinoma cell KB-3-1; further: nearly all actives have a fitted effect of over 60% in size
# Details: KB-3-1 viability, CellTiter-Glo ATP luminescence, 72 h; activity change, negative = cytotoxic: at 46.1 µM (top of the series)
# Method in brief: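 Parental KB-3-1 adenocarcinoma cells in phenol-red-free DMEM with 10% FBS were pin-treated with compounds at several concentrations, incubated 72 h at 37 °C, and viability read by CellTiter-Glo luminescence; concentration-effect curves were fitted after normalization.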
# On the % scale 0 is the no-effect control and ±100 the full control effect; potency means the concentration at half of the fitted maximal effect.
SMILES,"activity change, negative = cytotoxic",Potency
COc1ccc(/C=C2\Sc3ccc(C(=O)NC4CC4)cc3N(C)C2=O)cc1OC,inactive: -6.85%,
CC(=O)Nc1ccc(S(=O)(=O)O)c2cc(S(=O)(=O)O)c(N=Nc3ccc(N=Nc4ccc(S(=O)(=O)O)cc4)c4ccc(S(=O)(=O)O)cc34)c(O)c12,,"inconclusive: 9.2 µM [cytotoxic, partial curve, poor fit]"
CCCSc1nsc(NC(=O)Nc2ccc(F)cc2F)n1,,"inconclusive: 29.1 µM [cytotoxic, single point]"
O=C(CSc1nnc(-c2cccnc2)s1)Nc1ccnc2ccccc12,,active: 2.31 µM
Cc1ccc(C(=O)N2C(CC(=O)Nc3ccc(Cl)cc3)C(=O)NC3CCCCC32)cc1 (stereo not drawn),,"inconclusive: 16.4 µM [cytotoxic, single point]"
COc1cccc(/C=N/NC(=O)c2cc3c(OC)cccc3[nH]2)c1O,,"inconclusive: 20.6 µM [cytotoxic, partial curve]"
COc1cc(OC)cc(-c2noc(-c3csc([C@@H]4C[C@H](O)[C@@H](CO)O4)n3)n2)c1,inactive: 0%,
COc1ccc(NC(C)C(=O)N/N=C/c2ccccc2OCc2cccc(Br)c2)cc1 (stereo not drawn),,active: 23.1 µM
COc1ccc(C2=NN(c3ccc(C=O)cc3)C(c3ccccc3)C2)cc1 (stereo not drawn),inactive: -18.8%,
COc1ccc(NC(=O)CSCc2cc(=O)n3ccsc3n2)cc1,,"inconclusive: 2.91 µM [rising, partial curve, poor fit]"
CCOc1ccccc1CN1CCN(Cc2cc(=O)c3ccccc3[nH]2)CC1CCO (stereo not drawn),,"inconclusive: 18.4 µM [cytotoxic, partial curve, poor fit]"
C#CCn1c(/C=C/c2ccc(Cl)cc2)nc2ccccc21,inactive: -24.9%,
CC(C)CC(=O)NCC(c1ccc2c(c1)OCO2)N1CCN(c2ccccc2F)CC1 (stereo not drawn),inactive: -7.13%,
Cn1c(C(=O)NCCCN2CCCC2=O)cc2c(=O)n(C)c3ccccc3c21,,"inconclusive: 29.1 µM [rising, partial curve, poor fit]"
C[C@@H]1CN([C@H](C)CO)C(=O)c2cc(NC(=O)Nc3ccc(C(F)(F)F)cc3)ccc2O[C@H]1CN(C)S(=O)(=O)c1ccccc1,,"inconclusive: 23.1 µM [cytotoxic, single point]"
CCn1c2ccccc2c2cc(CN3CCN(S(=O)(=O)Cc4ccccc4)CC3)ccc21,inactive: -4.15%,
COc1ccc(C(=O)NCCc2nc3cc([N+](=O)[O-])ccc3n2C)cc1,,"inconclusive: 0.259 µM [rising, full curve]"
O=C1NC(=O)/C(=C\c2ccc(Cl)cc2Cl)N1,,"inconclusive: 18.4 µM [cytotoxic, single point]"
C/C(=N\Nc1ncc(Br)cn1)c1cccc([N+](=O)[O-])c1,inactive: -5.77%,
COC(=O)c1ccc(N2C(=O)Nc3ccccc3N2O)cc1,,"inconclusive: 0.0259 µM [cytotoxic, full curve]"
CNc1ccc(Br)cc(C(=O)/C=C/c2ccc(OC)cc2)c1=O,,"inconclusive: 29.1 µM [cytotoxic, single point]"
CCOC(=O)/C=c1/s/c(=C/c2ccc3cc(OC)ccc3c2)c(=O)n1CC(=O)NCc1ccc2c(c1)OCO2,,"inconclusive: 11.6 µM [cytotoxic, partial curve, poor fit]"
COc1ccc(S(=O)(=O)N(C)C[C@H]2Oc3c(NC(=O)Nc4ccc(C(F)(F)F)cc4)cccc3C(=O)N([C@H](C)CO)C[C@@H]2C)cc1,,"inconclusive: 16.4 µM [cytotoxic, single point]"

# A second format for 4 compounds above:
SMILES | activity change, negative = cytotoxic | Potency
CCCSc1nsc(NC(=O)Nc2ccc(F)cc2F)n1 |  | inconclusive: 29.1 µM [cytotoxic, single point]
COc1cccc(/C=N/NC(=O)c2cc3c(OC)cccc3[nH]2)c1O |  | inconclusive: 20.6 µM [cytotoxic, partial curve]
Cn1c(C(=O)NCCCN2CCCC2=O)cc2c(=O)n(C)c3ccccc3c21 |  | inconclusive: 29.1 µM [rising, partial curve, poor fit]
COC(=O)c1ccc(N2C(=O)Nc3ccccc3N2O)cc1 |  | inconclusive: 0.0259 µM [cytotoxic, full curve]

# Carrying on.

SMILES,"activity change, negative = cytotoxic",Potency
COc1ccc2c(c1)CCCC21SC(NC(C)=O)=NN1C(C)=O (stereo not drawn),,"inconclusive: 1.84 µM [rising, full curve]"
CCOc1ncccc1C(=O)Nc1cc2c(cc1Br)OCCO2,,"inconclusive: 29.1 µM [cytotoxic, single point]"
COc1cc2cc(C)c(Br)c(OC)c2cc1OC,,"inconclusive: 29.1 µM [cytotoxic, single point]"
COc1ccc(NC(=O)CCNC(=O)C2CCN(S(=O)(=O)c3ccc(OC)cc3)CC2)cc1,inactive: 5.13%,
Cc1nc2ccc(Cl)cc2[nH]1,,"inconclusive: 29.1 µM [rising, partial curve, poor fit]"
CCOc1cc(OCC)cc(C(=O)N2CCC[C@H]2C(=O)N2CCC[C@H]2C(=O)N(C)Cc2ccccc2)c1,,"inconclusive: 10.3 µM [rising, partial curve, poor fit]"
CCOc1ccc(CN2CCN(c3ncnc4scc(-c5ccccc5)c34)CC2)cc1,inactive: -13%,
OCCN=C1CCCc2c1[nH]c1ccc(Br)cc21,,active: 1.03 µM
O=C1c2ccc(Oc3cccc([N+](=O)[O-])c3)cc2C(=O)N1c1ccccn1,inactive: 0.657%,
O=C1c2cccc(NCCCNCCO)c2C(=O)c2cccc(NCCCNCCO)c21,,"inconclusive: 13 µM [cytotoxic, partial curve, poor fit]"
COC(=O)C1=CN(c2cccc(C(F)(F)F)c2)C=C(C(=O)OC)C1c1ccc(O)c(OC)c1,,"inconclusive: 29.1 µM [cytotoxic, partial curve, poor fit]"
Nc1ccc2nc(CCCCCCCCc3nc4ccc(N)cc4[nH]3)[nH]c2c1,inactive: 1.96%,
CC(C)c1ccc(Nc2ncc3c(n2)CCN(C(=O)Nc2ccc(F)c(Cl)c2)C3)cc1,,"inconclusive: 29.1 µM [cytotoxic, single point]"
Cc1nc2c(Br)cc(Br)cc2cc1O,,"inconclusive: 20.6 µM [cytotoxic, single point]"
Cc1ccc(-c2csc(NC(=O)c3ccc(-c4ccccc4)cc3)n2)o1,,"inconclusive: 18.4 µM [cytotoxic, partial curve, poor fit]"
COc1cc2cc(Oc3ccc4ccc(=O)oc4c3)c(=O)oc2cc1OC(=O)/C=C/c1ccccc1,,"inconclusive: 29.1 µM [rising, single point]"
O=C(Nc1ccccc1NC(=O)NC1CCCCC1)NC1CCCCC1,,"inconclusive: 23.1 µM [cytotoxic, single point]"
O=C(/C=C/c1ccccc1)Oc1cccc2cccnc12,inactive: -1.67%,
O=C1CCN(Cc2ccc(Br)cc2)CCN1[C@H](CO)Cc1ccccc1,,"inconclusive: 23.1 µM [cytotoxic, single point]"
Cc1cc(=O)n(-c2ccccc2)n1C,inconclusive: -0.0903%,
CCC(CC)C(=O)Nc1ccc(Sc2ccc([N+](=O)[O-])cc2)cc1,,"inconclusive: 29.1 µM [cytotoxic, single point]"
COc1ccc(NS(=O)(=O)c2ccc(NC(=O)c3ccc(Br)cc3)cc2)nn1,inactive: -22.2%,
COC(=O)c1ccc(NS(=O)(=O)c2cc3c4c(c2)C(C)C(=O)N4CCC3)cc1 (stereo not drawn),inconclusive: -13.4%,

SMILES,"activity change, negative = cytotoxic",Potency
CCOc1ccc(-c2cc(C(=O)N/N=C/c3cccnc3)c3ccccc3n2)cc1,,active: 8.2 µM
Cc1cc(C)cc(NC(=S)NCCN2CCOCC2)c1,inactive: 25%,
CC(C)(C)c1ccc(C(=O)NC(=S)Nc2sc3c(c2C#N)CCC3)cc1,,"inconclusive: 29.1 µM [cytotoxic, single point]"
NCCc1nnc(SCC(=O)c2ccc(Cl)cc2)o1,inactive: 4.1%,
CC(C)NC1CCC(Nc2ccnc3cc(Cl)ccc23)CC1 (stereo not drawn),,"inconclusive: 29.1 µM [cytotoxic, single point]"
Cc1cc(C)c(NC(=O)Cn2c(=O)n(CCc3ccccc3)c(=O)c3ccccc32)c(C)c1,inactive: 2.47%,
Nc1ccccc1C(=O)NCc1ccc(Cl)cc1,inactive: 3.72%,
COc1ccc(OC)c(CNC(=O)c2ccccc2NC(=O)c2nsc3ccccc23)c1,inactive: 4.41%,
O=C1CCCCCN1Sc1ccccc1,,"inconclusive: 18.4 µM [cytotoxic, partial curve]"
Cc1ccccc1NC1=C/C(=N\S(=O)(=O)c2ccc(C(=O)O)cc2)c2ccccc2C1=O,,"inconclusive: 25.9 µM [cytotoxic, single point]"
NC(=O)CS(=O)(=O)c1nc2ccccc2n1Cc1ccccc1F,,"inconclusive: 25.9 µM [cytotoxic, single point]"
O=[N+]([O-])c1ccc(C=NN2CCNC2=S)o1,,"inconclusive: 20.6 µM [cytotoxic, single point]"
O=C(/C=C/c1ccccc1)CCN1CCOCC1,,"inconclusive: 20.6 µM [cytotoxic, single point]"
O=C(Nc1ccc(N2CCCC2)cc1)c1cc(Br)ccc1Cl,,active: 20.6 µM
Cc1ccc(NC(=O)C2CCCN(S(=O)(=O)c3cccc4cccnc34)C2)c(Br)c1 (stereo not drawn),inactive: 2.01%,
O=[N+]([O-])c1ccc(N=Nc2c(O)[nH]c3ccc(F)cc23)cc1,,"inconclusive: 29.1 µM [cytotoxic, single point]"
Cc1ccc(S(=O)(=O)N2CCC(C(=O)NNC(=O)c3ccccc3O)CC2)cc1C,,"inconclusive: 29.1 µM [cytotoxic, single point]"
Cc1cc(C)n(-c2nc3ccccc3nc2Nc2cccc(C(=O)NCCc3ccccc3)c2)n1,inactive: -2.1%,
CC(C)CN(C(=O)COC(=O)C12CC3CC(CC(C3)C1)C2)c1c(N)n(Cc2ccccc2)c(=O)[nH]c1=O,,"inconclusive: 29.1 µM [cytotoxic, single point]"
CC(C)NC(=O)Nc1ccc2c(c1)C(=O)N([C@H](C)CO)C[C@H](C)[C@@H](CN(C)Cc1ccc(C(F)(F)F)cc1)OCCCC[C@H](C)O2,,"inconclusive: 18.4 µM [cytotoxic, single point]"
FC(F)(F)c1ccccc1NC(=S)NN=C1CCCCCC1,,"inconclusive: 29.1 µM [cytotoxic, single point]"
CCc1cccc(NS(=O)(=O)c2ccc3c(c2)oc(=O)n3C)c1,,"inconclusive: 23.1 µM [cytotoxic, partial curve, poor fit]"
